# From article PMC11695203, “A new peptide inhibitor of C1QBP exhibits potent anti‐tumour activity against triple negative breast cancer by impairing mitochondrial function and suppressing homologous recombination repair” (Clinical and Translational Medicine, 2025)
# Amino acid sequences for entries named in this document (tags omitted). Residues count along the entry.
# UniProt Q07021, residues 74-282: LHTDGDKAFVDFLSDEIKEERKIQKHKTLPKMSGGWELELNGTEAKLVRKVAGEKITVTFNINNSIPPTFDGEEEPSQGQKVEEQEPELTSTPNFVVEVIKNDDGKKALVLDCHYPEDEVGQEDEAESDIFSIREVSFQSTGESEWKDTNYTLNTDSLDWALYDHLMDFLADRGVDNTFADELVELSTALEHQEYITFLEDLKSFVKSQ
# These are yes or no findings as the source states them, for the method shown. Binding seen in cells or lysates may run through a third protein. Some binding calls cover weakened binding; strength is not graded here.
# T1: biotin-labelled PDBAG1 (human (peptide identified in patients' adipose tissue))
# T1 sequence (peptide, biotin label (position not stated)): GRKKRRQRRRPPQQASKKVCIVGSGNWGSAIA
# Experiments:
# [1] = biological target: T1, biotin-labelled PDBAG1 (human (peptide identified in patients' adipose tissue)); experiment: pull-down; biotin-PDBAG1 pull-down from cytoplasmic and nuclear protein extracts, followed by immunoblotting; only the target purified
# [2] = biological target: T1, biotin-labelled PDBAG1 (human (peptide identified in patients' adipose tissue)); experiment: pull-down; biotin-labelled PDBAG1 on streptavidin magnetic beads, incubated overnight at 4°C with cell lysate in IP lysis buffer; captured proteins detected by western blot; only the target purified
# [3] = biological target: T1, biotin-labelled PDBAG1 (human (peptide identified in patients' adipose tissue)); experiment: pull-down; lysates of MDA-MB-231 cells transfected with C-terminally HA-tagged C1QBP truncations incubated with PDBAG1; only the target purified
# HA-tagged C1QBP = HA-tagged C1QBP (UniProt Q07021); experiment: co-IP; HA-tagged C1QBP used as bait; biotin-labelled PDBAG1 added to the protein lysate; only the binder purified
molecule,measurement,setting,value
C1QBP (endogenous) (from UniProt Q07021 74-282),binding,[1],binds
same,binding,[2],binds
"C1QBP truncation 74–282AA, HA at the C-terminus (from UniProt Q07021 74-282) (domain or fragment)",binding,[3],binds
"DHX57 (endogenous) (protein, UniProt Q6P158 1-1386) MSSSVRRKGKPGKGGGKGSSRGGRGGRSHASKSHGSGGGGGGGGGGGGGNRKASSRIWDDGDDFCIFSESRRPSRPSNSNISKGESRPKWKPKAKVPLQTLHMTSENQEKVKALLRDLQEQDADAGSERGLSGEEEDDEPDCCNDERYWPAGQEPSLVPDLDPLEYAGLASVEPYVPEFTVSPFAVQKLSRYGFNTERCQAVLRMCDGDVGASLEHLLTQCFSETFGERMKISEAVNQISLDECMEQRQEEAFALKSICGEKFIERIQNRVWTIGLELEYLTSRFRKSKPKESTKNVQENSLEICKFYLKGNCKFGSKCRFKHEVPPNQIVGRIERSVDDSHLNAIEDASFLYELEIRFSKDHKYPYQAPLVAFYSTNENLPLACRLHISEFLYDKALTFAETSEPVVYSLITLLEEESEIVKLLTNTHHKYSDPPVNFLPVPSRTRINNPACHKTVIPNNSFVSNQIPEVEKASESEESDEDDGPAPVIVENESYVNLKKKISKRYDWQAKSVHAENGKICKQFRMKQASRQFQSILQERQSLPAWEERETILNLLRKHQVVVISGMTGCGKTTQIPQFILDDSLNGPPEKVANIICTQPRRISAISVAERVAKERAERVGLTVGYQIRLESVKSSATRLLYCTTGVLLRRLEGDTALQGVSHIIVDEVHERTEESDFLLLVLKDIVSQRPGLQVILMSATLNAELFSDYFNSCPVITIPGRTFPVDQFFLEDAIAVTRYVLQDGSPYMRSMKQISKEKLKARRNRTAFEEVEEDLRLSLHLQDQDSVKDAVPDQQLDFKQLLARYKGVSKSVIKTMSIMDFEKVNLELIEALLEWIVDGKHSYPPGAILVFLPGLAEIKMLYEQLQSNSLFNNRRSNRCVIHPLHSSLSSEEQQAVFVKPPAGVTKIIISTNIAETSITIDDVVYVIDSGKMKEKRYDASKGMESLEDTFVSQANALQRKGRAGRVASGVCFHLFTSHHYNHQLLKQQLPEIQRVPLEQLCLRIKILEMFSAHNLQSVFSRLIEPPHTDSLRASKIRLRDLGALTPDERLTPLGYHLASLPVDVRIGKLMLFGSIFRCLDPALTIAASLAFKSPFVSPWDKKEEANQKKLEFAFANSDYLALLQAYKGWQLSTKEGVRASYNYCRQNFLSGRVLQEMASLKRQFTELLSDIGFAREGLRAREIEKRAQGGDGVLDATGEEANSNAENPKLISAMLCAALYPNVVQVKSPEGKFQKTSTGAVRMQPKSAELKFVTKNDGYVHIHPSSVNYQVRHFDSPYLLYHEKIKTSRVFIRDCSMVSVYPLVLFGGGQVNVQLQRGEFVVSLDDGWIRFVAASHQVAELVKELRCELDQLLQDKIKNPSIDLCTCPRGSRIISTIVKLVTTQ",binding,[2],binds
GRKKRRQRRRPPQQASKKVCIVGSGNWGSAIA (biotin label (position not given)) [biotin-labelled PDBAG1],binding,HA-tagged C1QBP,binds
